Test results taken from patent US10689526B2, “N-halamines compounds as multifunctional additives” (BOARD OF REGENTS, THE UNIVERSITY OF TEXAS SYSTEM, priority 2005, dated 2020).
Some results were stated once for a whole list of compounds, not compound by compound. For at least one compound, name, drawing or mass did not settle the structure.

Key:
[1] = tested on: Staphylococcus aureus subsp. aureus (S. aureus, ATCC 6538, gram-positive); experiment: Antimicrobial activity of CADMH in aqueous suspension; assay type: cell-based; conditions: 1000 ppm active chlorine content
Procedure: (§1) In other examples to evaluate antimicrobial activities of CADMH, Escherichia coli (e.g., E. coli, ATCC® 15597™, gram-negative) and Staphylococcus aureus subsp. aureus (e.g., S. aureus, ATCC® 6538™, gram-positive) were used as model microorganisms to challenge the antimicrobial functions of the samples. In the microbial studies, the bacteria were grown in broth solutions (e.g., LB broth for E. coli; Tryptic Soy broth for S. aureus) overnight at 37° C. Cells were harvested in a centrifuge, washed twice with phosphate buffered saline (e.g., PBS, OmniPur®, NaCl, 8.0 g/L; KCl, 0.20 g/L; Na2HPO4, 1.42 g/L; KH2PO4, 1.36 g/L; pH 7.4), re-suspended in PBS, and then diluted to concentrations of 10^8-9 CFU/mL. A known amount of CADMH (particle size: 60-80 mesh) was dispersed in 10 mL of sterilized distilled water. The mixture was vortexed and then sonicated for 10 minutes. Then, 100 μL of the bacteria suspension were added into the CADMH-containing suspension and the resultant mixture was vortexed for 60 seconds. After a certain period of contact time under constant shaking, the mixture was poured into 90 mL of 0.03 wt % sterilized sodium thiosulfate aqueous solution to quench the active chlorine and stop the antimicrobial test. […] The resulting solutions were vortexed for 2 minutes and then serially diluted, and each dilution was placed onto LB agar (for E. coli) or Tryptic soy agar (for S. aureus). The same procedure was also applied to the correspondent unchlorinated samples as controls. Bacterial colonies on the plates were counted after incubation at 37° C. for 24 hours.

[2] = tested on: Escherichia coli (E. coli, ATCC 15597, gram-negative); experiment: as above; assay type: cell-based; conditions: 1000 ppm active chlorine content
Procedure: as §1

CCCCCCN1C(=O)N(Cl)C(C)(C)C1=O [Cl-HDMH]
contact time for total kill of S. aureus [1]: 20 to 30 min | contact time for total kill of E. coli [2]: 20 to 30 min

CCCCCCCCCCCCCCCCCCCCCCN1C(=O)N(Cl)C(C)(C)C1=O [Cl-DCSDMH]
contact time for total kill of S. aureus [1]: 20 to 30 min | contact time for total kill of E. coli [2]: 20 to 30 min
